This is one part of the list. The data scatter; read single values as rough.

Chains of the proteins cited; added tags and fusions are not shown. Lines headed by an entry give the natural chain unless they say otherwise; changes in a name come on top. Residues count along the entry.
UniProt Q9C0F1, 349-368: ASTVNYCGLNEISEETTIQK
UniProt Q9P031, 110-152: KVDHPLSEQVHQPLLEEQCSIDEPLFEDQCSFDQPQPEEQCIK
UniProt P49454: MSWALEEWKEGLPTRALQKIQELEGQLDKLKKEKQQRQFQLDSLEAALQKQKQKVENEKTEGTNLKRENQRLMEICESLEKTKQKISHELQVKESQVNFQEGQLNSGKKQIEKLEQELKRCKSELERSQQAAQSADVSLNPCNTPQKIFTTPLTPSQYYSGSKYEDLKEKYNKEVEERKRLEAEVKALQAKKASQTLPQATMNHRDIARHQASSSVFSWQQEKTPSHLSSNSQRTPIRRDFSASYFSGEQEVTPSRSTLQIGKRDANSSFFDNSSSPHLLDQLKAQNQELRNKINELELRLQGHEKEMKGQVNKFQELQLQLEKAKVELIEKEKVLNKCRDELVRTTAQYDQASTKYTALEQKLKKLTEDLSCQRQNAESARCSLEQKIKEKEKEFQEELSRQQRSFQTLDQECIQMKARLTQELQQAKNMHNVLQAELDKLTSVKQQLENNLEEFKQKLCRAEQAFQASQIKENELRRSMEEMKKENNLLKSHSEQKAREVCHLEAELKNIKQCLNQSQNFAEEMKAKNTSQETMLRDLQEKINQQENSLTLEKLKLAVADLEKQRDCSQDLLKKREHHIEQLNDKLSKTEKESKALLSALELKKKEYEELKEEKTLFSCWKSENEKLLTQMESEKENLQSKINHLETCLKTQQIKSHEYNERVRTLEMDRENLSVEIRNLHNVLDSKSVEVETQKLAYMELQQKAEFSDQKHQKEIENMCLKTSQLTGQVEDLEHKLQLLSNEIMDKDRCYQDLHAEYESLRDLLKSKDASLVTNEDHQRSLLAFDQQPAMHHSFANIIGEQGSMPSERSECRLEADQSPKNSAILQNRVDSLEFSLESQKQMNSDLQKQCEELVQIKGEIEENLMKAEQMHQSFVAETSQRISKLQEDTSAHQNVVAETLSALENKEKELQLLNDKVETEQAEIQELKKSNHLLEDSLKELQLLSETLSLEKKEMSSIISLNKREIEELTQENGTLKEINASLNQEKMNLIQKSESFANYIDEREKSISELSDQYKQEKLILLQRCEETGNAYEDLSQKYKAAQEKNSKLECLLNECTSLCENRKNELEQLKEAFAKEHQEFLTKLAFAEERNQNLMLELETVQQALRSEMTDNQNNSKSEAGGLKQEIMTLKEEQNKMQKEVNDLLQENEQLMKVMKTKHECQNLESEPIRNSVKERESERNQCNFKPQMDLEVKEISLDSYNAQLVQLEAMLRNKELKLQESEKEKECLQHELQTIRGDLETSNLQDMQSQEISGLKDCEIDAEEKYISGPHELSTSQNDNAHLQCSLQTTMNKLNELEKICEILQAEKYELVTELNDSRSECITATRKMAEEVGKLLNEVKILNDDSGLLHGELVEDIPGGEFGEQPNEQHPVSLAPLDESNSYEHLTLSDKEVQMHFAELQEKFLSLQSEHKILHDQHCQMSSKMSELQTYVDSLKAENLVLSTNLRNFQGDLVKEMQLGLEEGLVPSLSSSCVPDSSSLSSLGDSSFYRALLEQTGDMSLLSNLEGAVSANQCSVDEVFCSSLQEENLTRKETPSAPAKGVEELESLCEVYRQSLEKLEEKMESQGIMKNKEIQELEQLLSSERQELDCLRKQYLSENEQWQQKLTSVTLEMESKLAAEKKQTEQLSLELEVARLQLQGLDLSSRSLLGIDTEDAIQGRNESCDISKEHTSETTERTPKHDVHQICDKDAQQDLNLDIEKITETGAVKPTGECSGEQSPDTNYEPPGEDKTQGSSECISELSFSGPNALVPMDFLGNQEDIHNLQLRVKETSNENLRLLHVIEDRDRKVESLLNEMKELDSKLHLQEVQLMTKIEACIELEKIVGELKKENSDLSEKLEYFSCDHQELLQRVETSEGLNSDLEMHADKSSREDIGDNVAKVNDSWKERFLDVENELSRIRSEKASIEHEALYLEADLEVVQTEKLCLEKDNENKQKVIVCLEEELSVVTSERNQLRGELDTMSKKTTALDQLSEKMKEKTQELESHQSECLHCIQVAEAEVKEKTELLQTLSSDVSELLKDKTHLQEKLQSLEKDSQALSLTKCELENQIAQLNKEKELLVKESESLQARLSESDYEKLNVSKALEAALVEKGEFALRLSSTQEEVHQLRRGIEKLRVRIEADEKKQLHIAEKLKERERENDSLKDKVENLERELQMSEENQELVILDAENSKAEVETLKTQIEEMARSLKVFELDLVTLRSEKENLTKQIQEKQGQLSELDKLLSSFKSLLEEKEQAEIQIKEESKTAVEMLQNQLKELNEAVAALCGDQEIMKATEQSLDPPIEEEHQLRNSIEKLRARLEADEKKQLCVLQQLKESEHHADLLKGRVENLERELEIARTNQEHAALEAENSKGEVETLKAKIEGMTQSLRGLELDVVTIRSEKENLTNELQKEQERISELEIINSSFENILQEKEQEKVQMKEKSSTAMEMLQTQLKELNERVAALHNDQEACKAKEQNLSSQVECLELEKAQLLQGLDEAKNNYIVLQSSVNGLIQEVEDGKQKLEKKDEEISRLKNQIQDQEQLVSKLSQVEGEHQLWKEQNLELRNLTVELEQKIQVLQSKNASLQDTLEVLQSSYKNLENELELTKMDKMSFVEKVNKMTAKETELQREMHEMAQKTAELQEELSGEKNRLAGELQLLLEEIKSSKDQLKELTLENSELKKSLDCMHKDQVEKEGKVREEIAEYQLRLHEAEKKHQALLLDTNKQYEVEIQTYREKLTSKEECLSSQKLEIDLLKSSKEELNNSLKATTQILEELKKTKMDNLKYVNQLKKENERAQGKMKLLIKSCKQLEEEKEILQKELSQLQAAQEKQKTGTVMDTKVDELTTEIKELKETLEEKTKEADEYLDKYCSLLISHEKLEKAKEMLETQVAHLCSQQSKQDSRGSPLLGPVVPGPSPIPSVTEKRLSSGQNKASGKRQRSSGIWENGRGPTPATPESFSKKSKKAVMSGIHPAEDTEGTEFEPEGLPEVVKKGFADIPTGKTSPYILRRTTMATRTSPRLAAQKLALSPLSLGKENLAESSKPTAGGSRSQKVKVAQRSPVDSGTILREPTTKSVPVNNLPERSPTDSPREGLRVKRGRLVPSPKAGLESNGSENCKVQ
UniProt Q9Y4F5, 130-150: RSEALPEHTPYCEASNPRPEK
UniProt Q96JM3: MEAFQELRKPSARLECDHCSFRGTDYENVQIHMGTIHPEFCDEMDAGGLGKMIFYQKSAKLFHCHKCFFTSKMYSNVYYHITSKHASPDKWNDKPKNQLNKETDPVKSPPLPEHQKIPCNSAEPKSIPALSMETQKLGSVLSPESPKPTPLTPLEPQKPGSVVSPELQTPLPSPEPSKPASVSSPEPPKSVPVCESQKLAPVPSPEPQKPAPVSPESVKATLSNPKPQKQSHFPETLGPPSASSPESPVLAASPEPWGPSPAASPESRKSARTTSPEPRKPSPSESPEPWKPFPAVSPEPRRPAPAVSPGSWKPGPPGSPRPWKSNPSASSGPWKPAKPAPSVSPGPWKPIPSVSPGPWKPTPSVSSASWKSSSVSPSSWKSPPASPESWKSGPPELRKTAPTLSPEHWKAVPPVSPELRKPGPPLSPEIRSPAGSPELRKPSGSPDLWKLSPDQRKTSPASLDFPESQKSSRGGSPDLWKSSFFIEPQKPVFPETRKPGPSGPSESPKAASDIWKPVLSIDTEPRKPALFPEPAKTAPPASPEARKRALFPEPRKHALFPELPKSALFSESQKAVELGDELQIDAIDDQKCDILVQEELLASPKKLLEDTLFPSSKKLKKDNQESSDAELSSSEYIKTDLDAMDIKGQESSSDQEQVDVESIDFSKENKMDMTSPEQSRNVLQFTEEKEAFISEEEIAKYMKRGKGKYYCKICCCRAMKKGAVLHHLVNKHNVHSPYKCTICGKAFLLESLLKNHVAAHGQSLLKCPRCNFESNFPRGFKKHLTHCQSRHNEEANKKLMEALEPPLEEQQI
UniProt P30307: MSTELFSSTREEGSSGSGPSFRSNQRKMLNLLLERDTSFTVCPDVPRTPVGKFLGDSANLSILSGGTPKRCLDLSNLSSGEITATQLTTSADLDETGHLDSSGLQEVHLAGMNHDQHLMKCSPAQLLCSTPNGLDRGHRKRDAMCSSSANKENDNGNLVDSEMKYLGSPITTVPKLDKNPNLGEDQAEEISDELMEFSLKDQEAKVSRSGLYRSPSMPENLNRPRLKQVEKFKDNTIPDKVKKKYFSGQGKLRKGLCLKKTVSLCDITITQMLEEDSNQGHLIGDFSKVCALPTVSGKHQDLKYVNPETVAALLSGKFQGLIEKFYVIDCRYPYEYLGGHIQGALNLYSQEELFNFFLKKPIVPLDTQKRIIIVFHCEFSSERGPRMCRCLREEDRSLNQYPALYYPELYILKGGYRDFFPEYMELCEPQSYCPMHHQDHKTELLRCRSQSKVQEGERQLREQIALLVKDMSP
UniProt P48643: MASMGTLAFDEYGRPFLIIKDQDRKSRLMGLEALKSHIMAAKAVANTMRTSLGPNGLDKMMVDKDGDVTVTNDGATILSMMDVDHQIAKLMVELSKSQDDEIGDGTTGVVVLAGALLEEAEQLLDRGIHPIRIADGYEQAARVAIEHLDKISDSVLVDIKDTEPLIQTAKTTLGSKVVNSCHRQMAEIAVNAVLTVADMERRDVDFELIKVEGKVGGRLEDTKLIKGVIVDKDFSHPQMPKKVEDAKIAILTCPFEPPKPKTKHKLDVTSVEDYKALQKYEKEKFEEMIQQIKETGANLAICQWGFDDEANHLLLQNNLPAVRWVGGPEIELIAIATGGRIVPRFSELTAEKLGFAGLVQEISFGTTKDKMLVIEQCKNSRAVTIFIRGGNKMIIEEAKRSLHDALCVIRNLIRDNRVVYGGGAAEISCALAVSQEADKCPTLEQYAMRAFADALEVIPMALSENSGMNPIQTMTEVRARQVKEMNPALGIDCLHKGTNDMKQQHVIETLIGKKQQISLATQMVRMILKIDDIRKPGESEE
UniProt Q6P1N0, 303-346: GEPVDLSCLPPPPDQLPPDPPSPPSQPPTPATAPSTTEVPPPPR
UniProt Q5T9S5: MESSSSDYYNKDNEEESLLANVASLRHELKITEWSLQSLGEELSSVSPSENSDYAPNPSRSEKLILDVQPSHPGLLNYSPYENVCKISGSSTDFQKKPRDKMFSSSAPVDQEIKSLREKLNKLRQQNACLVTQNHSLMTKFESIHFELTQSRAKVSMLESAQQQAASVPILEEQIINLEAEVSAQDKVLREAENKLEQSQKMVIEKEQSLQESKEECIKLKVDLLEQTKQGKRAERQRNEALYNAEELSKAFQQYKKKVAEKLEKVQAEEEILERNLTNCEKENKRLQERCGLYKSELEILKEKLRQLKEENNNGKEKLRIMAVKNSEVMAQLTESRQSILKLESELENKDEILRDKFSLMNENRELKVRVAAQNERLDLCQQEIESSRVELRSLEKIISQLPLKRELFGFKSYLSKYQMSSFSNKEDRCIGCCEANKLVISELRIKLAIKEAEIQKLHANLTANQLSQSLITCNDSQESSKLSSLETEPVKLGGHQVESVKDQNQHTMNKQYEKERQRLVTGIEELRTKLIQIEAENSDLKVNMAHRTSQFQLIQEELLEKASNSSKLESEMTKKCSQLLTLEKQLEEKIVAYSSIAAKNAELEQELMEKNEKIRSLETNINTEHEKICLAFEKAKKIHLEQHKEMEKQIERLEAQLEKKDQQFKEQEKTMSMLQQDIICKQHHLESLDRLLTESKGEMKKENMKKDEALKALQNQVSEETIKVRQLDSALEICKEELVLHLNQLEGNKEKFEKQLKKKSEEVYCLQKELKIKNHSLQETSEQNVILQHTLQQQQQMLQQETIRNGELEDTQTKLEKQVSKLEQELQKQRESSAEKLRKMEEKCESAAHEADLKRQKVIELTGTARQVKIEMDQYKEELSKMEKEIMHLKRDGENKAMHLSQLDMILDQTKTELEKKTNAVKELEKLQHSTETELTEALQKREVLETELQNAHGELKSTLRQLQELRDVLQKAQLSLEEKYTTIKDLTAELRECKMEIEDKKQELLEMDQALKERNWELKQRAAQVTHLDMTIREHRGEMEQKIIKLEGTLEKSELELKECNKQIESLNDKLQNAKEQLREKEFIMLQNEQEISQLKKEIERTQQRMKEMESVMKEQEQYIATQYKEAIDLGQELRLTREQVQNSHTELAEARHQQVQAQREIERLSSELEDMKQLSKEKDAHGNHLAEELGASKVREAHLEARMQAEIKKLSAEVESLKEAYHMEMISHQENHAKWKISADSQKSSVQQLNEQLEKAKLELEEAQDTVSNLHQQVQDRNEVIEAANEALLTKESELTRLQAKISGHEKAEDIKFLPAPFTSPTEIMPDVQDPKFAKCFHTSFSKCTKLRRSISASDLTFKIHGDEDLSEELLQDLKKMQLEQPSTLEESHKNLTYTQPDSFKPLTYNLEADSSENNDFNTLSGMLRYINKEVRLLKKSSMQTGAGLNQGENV

Compound in the test: ClCC(=O)N[C@H]1CCCc2ccccc12
The experiment in a line: log2 mean competition ratio of IA-DTB cysteine labelling (DMSO/compound) (log2 ratio); higher = stronger cysteine engagement by compound. Conditions: 200 µM; treatment time: 4 h; cell line lysate: HEK293T. The method, then: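 IA-DTB competitive cysteine chemoproteomics in HEK293T RIPA lysate. Lysates were treated with compound 29 or 30 at 50 or 200 µM for 4 h, then IA-DTB (500 µM, 1 h), trypsin-digested, NeutrAvidin-enriched and analysed by diaPASEF. Competition ratio = intensity DMSO / intensity compound (n=4 treated, n=64 DMSO); binding: mean log2 CR ≥ 1 and p ≤ 0.05 plus QC filters. Target is the cysteine site.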
As for CHD1 C411 (UniProt O14646), the “log2 mean competition ratio” value is -0.0848. For the target CEP44 C28 (UniProt Q9C0F1), the “log2 mean competition ratio” value was -0.00183. For the target “CCDC59_(C128,C128,C139,C139,C150,C150) (UniProt Q9P031)”, the “log2 mean competition ratio” value was -0.191. The value for CCDC74A;CCDC74B C241;(C241) was -0.248; that for CFAP97 C27 (UniProt Q9P2B7) was 0.318. The value for CCT4 C450 (UniProt P50991) was -0.00209; that for CCT7 C345 (UniProt Q99832) was -0.0707; that for CENPF C1233 (UniProt P49454) was -0.000433. As for CDK17 C233 (UniProt Q00537), the “log2 mean competition ratio” value is -0.0424.

As for CCT2 C535 (UniProt P78371), the “log2 mean competition ratio” value was -0.18. The value for CEP170B C141 (UniProt Q9Y4F5) was -0.425; that for CHAMP1 C194 (UniProt Q96JM3) was -0.0441; that for CENPM C98 (UniProt Q9NSP4) was 0.0114. Turning to CEP44 C355 (UniProt Q9C0F1), the “log2 mean competition ratio” value was 0.0444.

On to CENPF C722 (UniProt P49454), for which the “log2 mean competition ratio” value is -0.101. Regarding CERS5 C369 (UniProt Q8N5B7), the “log2 mean competition ratio” value is 0.77.

On to CHD3 C1838 (UniProt Q12873), for which the “log2 mean competition ratio” value was -0.0354. The value for CCDC85C C389 (UniProt A6NKD9) was 0.31. In the case of CDC25C C330 (UniProt P30307) it was 0.0852; in that of CCP110 C436 (UniProt O43303), 0.249. The value for CEP97 C94 (UniProt Q8IW35) was 0.0285; that for CCT5 C493 (UniProt P48643) was -0.104.

Regarding CCDC138 C193 (UniProt Q96M89), the “log2 mean competition ratio” value stood at 0.0535. The value for CC2D1A C310 (UniProt Q6P1N0) was -0.144; that for CEP152 C101 (UniProt O94986) was 0.0495; that for CDR2L C317 (UniProt Q86X02) was -0.0168.

Regarding CDR2 C331 (UniProt Q01850), the “log2 mean competition ratio” value is -0.0155. In the case of CCDC88C C1871 (UniProt Q9P219) it was -0.0629; in that of CCDC77 C455, 0.102. As to CEP350 C1557 (UniProt Q5VT06), the “log2 mean competition ratio” value turned out to be 0.0568. For CEP152 C818 (UniProt O94986), the “log2 mean competition ratio” value amounted to 0.0138. As for CCDC18 C681 (UniProt Q5T9S5), the “log2 mean competition ratio” value is 0.0347.

On to CCDC91 C247 (UniProt Q7Z6B0), for which the “log2 mean competition ratio” value is -0.0506.

With CDK11A C428 (UniProt Q9UQ88), the “log2 mean competition ratio” value is 0.0144. In the case of CCNT1 C111 (UniProt O60563) it was -0.331; in that of CENPF C2464 (UniProt P49454), -0.00415.

The values are drawn from the supplement of paper PMC11732987, “Enantioselective OTUD7B fragment discovery through chemoproteomics screening and high-throughput optimisation” (Communications Chemistry, 2025).
